These are yes or no findings as the source states them, for the method shown. Some entries that bind do so weakly or less than the wild type.
Biological target: β-catenin (human (endogenous in SW480 and HCT116)) (UniProt P35222)
Assay: Re-ChIP; chromatin cross-linked with 1% formaldehyde, sonicated to ~500 bp; first immune complexes eluted (1% SDS, 100 mM NaCO3), diluted in re-ChIP buffer and precipitated with a second antibody; read out by real-time PCR of the ADAM10/17/19 promoters

The chains behind the UniProt entries cited, without tags or fusion partners.
UniProt P35222: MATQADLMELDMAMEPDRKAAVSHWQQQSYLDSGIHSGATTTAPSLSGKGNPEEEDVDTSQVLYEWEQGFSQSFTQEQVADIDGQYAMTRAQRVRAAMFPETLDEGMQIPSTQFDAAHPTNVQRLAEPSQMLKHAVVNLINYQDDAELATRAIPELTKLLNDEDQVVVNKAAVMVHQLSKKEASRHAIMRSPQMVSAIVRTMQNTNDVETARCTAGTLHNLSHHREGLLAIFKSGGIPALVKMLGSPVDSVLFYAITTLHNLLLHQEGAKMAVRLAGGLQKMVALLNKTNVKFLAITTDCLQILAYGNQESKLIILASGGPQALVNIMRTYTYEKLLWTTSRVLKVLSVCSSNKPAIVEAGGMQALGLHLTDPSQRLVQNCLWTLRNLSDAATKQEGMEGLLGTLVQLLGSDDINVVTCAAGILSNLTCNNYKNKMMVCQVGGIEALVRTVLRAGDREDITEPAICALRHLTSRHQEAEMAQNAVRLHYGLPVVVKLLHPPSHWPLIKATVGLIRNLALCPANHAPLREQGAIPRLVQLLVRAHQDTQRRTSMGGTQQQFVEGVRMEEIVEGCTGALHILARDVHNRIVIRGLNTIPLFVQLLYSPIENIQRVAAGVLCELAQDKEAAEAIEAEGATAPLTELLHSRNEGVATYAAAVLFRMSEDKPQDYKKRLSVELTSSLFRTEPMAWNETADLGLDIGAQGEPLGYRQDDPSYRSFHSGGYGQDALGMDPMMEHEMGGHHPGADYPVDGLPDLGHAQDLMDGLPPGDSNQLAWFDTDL
UniProt P51532: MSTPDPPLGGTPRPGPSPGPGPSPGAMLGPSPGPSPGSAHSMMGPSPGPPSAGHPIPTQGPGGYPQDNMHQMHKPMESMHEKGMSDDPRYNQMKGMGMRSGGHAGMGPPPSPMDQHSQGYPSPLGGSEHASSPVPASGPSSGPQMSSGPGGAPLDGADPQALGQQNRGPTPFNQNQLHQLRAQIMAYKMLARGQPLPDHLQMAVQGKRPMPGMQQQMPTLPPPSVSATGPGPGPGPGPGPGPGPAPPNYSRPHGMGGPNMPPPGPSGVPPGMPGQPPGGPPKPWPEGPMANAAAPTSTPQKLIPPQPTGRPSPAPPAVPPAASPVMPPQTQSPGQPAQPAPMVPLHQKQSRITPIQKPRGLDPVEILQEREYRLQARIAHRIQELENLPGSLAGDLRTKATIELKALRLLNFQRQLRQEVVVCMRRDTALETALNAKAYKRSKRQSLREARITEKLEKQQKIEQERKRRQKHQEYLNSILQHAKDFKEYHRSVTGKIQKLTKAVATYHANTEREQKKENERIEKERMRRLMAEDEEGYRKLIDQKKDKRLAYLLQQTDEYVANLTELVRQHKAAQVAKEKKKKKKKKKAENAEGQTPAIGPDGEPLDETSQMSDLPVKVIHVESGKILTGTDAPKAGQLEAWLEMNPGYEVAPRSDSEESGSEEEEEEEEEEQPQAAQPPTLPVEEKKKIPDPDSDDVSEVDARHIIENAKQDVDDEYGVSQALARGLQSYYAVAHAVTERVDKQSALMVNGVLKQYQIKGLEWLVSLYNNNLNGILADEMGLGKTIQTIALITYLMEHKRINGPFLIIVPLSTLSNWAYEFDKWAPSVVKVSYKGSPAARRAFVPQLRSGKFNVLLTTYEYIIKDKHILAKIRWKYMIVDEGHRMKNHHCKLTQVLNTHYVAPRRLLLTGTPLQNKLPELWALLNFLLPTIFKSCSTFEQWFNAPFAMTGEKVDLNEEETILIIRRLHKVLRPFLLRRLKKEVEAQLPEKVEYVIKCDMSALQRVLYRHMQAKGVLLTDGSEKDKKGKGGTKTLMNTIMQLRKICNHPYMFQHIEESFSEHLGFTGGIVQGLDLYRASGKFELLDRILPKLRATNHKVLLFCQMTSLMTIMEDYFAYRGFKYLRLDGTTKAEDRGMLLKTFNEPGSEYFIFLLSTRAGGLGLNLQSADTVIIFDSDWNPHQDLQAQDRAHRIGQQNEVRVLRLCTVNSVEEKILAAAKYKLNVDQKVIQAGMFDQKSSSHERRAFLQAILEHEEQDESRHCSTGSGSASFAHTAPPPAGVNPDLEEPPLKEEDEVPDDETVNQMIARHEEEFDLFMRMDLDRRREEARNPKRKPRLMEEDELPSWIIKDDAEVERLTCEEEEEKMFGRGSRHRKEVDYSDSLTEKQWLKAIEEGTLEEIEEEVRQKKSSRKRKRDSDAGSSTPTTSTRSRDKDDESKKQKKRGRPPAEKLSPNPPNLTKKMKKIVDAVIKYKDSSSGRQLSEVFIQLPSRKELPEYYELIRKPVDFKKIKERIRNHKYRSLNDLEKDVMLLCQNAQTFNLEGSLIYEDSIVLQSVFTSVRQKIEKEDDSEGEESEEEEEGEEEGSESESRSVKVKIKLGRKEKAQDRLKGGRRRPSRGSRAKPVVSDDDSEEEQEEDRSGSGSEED

BRG1 (from UniProt P51532 1-1647)
binding: binds

From paper PMC7517301
